Experimental data reported in PMC10163745.
No constants are given. Whether binding was seen depends on the method and setting. Binding seen in cells or lysates may run through a third protein.

Sequences of proteins named here, by UniProt entry; tags and fusion partners are left off.
UniProt Q01995: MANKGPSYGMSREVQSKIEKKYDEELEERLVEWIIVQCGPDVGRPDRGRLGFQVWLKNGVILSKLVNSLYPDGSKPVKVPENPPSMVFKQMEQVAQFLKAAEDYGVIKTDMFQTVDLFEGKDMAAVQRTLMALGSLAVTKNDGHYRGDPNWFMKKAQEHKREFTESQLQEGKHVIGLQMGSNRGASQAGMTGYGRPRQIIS

Target: T1, zinc finger E-box binding homeobox 1 (ZEB1) (human (endogenous in HSFs)) (UniProt P37275)
T1 sequence: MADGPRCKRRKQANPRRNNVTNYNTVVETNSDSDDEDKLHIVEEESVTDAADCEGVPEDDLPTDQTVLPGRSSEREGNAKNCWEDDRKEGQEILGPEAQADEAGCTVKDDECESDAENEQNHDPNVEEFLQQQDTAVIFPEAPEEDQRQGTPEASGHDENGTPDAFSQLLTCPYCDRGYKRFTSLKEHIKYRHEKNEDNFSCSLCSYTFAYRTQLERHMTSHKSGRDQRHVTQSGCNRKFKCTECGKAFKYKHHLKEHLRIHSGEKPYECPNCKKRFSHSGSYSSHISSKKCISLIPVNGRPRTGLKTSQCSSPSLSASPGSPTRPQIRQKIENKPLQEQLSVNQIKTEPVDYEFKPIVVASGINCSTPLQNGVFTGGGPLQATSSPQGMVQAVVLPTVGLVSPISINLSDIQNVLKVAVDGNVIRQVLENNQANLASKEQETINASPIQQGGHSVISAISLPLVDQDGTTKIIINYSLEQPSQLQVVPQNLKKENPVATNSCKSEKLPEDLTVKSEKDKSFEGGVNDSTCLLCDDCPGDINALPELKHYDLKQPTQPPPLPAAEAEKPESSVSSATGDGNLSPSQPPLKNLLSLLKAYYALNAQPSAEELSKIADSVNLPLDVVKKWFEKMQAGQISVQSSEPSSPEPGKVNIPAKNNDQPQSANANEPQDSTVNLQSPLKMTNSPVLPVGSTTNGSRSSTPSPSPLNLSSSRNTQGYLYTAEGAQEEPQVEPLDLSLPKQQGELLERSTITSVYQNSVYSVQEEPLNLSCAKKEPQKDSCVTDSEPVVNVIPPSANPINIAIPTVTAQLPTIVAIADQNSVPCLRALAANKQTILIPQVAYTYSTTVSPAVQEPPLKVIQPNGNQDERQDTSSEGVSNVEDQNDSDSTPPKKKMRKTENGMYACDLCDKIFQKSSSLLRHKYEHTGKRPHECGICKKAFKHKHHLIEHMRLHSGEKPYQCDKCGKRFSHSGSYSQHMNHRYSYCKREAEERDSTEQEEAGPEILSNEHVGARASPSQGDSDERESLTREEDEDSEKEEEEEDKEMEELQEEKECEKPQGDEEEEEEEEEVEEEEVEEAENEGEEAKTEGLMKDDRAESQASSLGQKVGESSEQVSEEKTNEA
Test: co-IP; whole-cell lysates from HSFs immunoprecipitated and immunoblotted with antibodies against the indicated proteins (endogenous)

- binding: no binding
Substance: transgelin (TAGLN) (from UniProt Q01995 1-201)
